Experimental data taken from patent publication US10336790B2 (priority 2014, dated 2019).
For at least one compound, name, drawing or mass did not settle the structure.

System: M. smegmatis
Assay: Disk diffusion assay
Type: cell-based
Conditions: 100 μg peptide or 10 μg kanamycin per 6 mm disk; three weeks at 37° C.

For `NC[C@H]1O[C@H](O[C@H]2[C@H](O)[C@@H](O[C@H]3O[C@H](CO)[C@@H](O)[C@H](N)[C@H]3O)[C@H](N)C[C@@H]2N)[C@H](O)[C@@H](O)[C@@H]1O` [Kanamycin, kanamycin, reference compound], the “inhibition (clear zones around disks)” value was “strong signal”.
